Literature values in patent publication US20080255097A1, “Methods for the Treatment of Substance Abuse and Dependence” (priority 2005, published 2008).

SMILES | duration of action (in vivo) | duration of block of injected heroine effects (single oral dose)
CC[C@H](OC(C)=O)C(C[C@H](C)N(C)C)(c1ccccc1)c1ccccc1 [levo-alphacetylmethadol] | 48 to 72 h | 
O=C1CC[C@@]2(O)[C@H]3Cc4ccc(O)c5c4[C@@]2(CCN3CC2CC2)[C@H]1O5 [Naltrexone, 17-(cyclopropylmethyl)-4,5α-epoxy-3,14-dihydroxymorphinan-6-one] |  | 48 h
